These are yes or no findings as the source states them, for the method shown.
Columns and labels:
ENTPD6 protein [1] = assay: ELISA, coated protein
ENTPD6 protein [2] = assay: ELISA on coated ENTPD6 protein, anti-hIgG-HRP, OD450

B1: hu23.H5L5 (antibody, V domains shown)
VH: QVQLVQSGAEVKKPGASVKVSCKASGYNLKDTFLHWVRQAPGQGLEWMGRIDPANGNIKYDPKFQGRVTITADTSANTAYMELISLRSEDTAVYYCANSPYYYGSGYRIFDVWGQGTTVTVSS
VL: QIVLTQSPATLSLSPGERATLSCSAFSSVNYMHWYQQKPGQAPRLLIYTTSNLASGIPTRFSGSGSGTSYTLTISSLEPEDFAVYYCQQRSTYPFTFGQGTKLEIK
binding (ENTPD6 protein [1]): no binding
binding (ENTPD6 protein [2]): no binding (tested: about 66 nM)

Reference: patent US20210388105A1
